Results taken from patent publication US10709720B2, “Human milk oligosaccharides for modulating inflammation” (priority 2010, dated 2020).
At least one structure is not confirmed: it was looked up by name or label, or the drawing left a doubt.

Tests used:
[1] = tested on: human parainfluenza virus (HPIV3); format: cell-based; details: HMO at 1 mg/mL
[2] = tested on: H1N1 influenza virus; format: cell-based; details: HMO at 1 mg/mL

CC(=O)N[C@H]1[C@H]([C@H](O)[C@H](O)CO)OC(O)(C(=O)O)C[C@@H]1O (some centres unmarked) [SA, sialic acid]
anti-viral activity against HPIV3 [1]: significantly inhibits
anti-viral activity against H1N1 influenza virus [2]: significantly inhibits
